Our source for the isolated mass values is patent US5003011A (The Administrators of the Tulane Educational Fund, priority 1989, dated 1991).

The data set in a line: general procedure: Boc solid-phase peptide synthesis; benzhydrylamine resin. To be noted: whole synthesis, scale 0.5 mmole.

Consider “N-Ac-D-β-Nal-D-Phe-D-Phe-Ser-Try-D-Arg-Phe-Arg-Pro-D-Ala”, for which the isolated mass is given as 117 mg.
